One test has as its target RFP-RNF26 I382R (UniProt Q9BY78). Nature of the test: co-IP; U2OS co-transfected with RFP-RNF26 variants and HA-HERP1 or HA-HRD1; lysis in 1% DMNG, 150 mM NaCl, 50 mM Tris-HCl pH 7.5, 5 mM MgCl2; RFP-TRAP beads; western blot. (A western blot detects proteins with antibodies after separation by electrophoresis.)
For the next test, the target named is RFP-RNF26 WT (UniProt Q9BY78). Described as above.
Test [1] deals with recombinant His-tagged vimentin (UniProt P08670). The test is described as follows: in vitro deposition on pre-assembled filaments, confocal fluorescence microscopy; Rhodamine-RING-I382R on pre-assembled His-vimentin filaments; both purified.
Test [2] shares this target. Nature of the test: pull-down; 3 μg his-Vim and 3 μg Rho-RNF26tail in PBS, 30 min at 37°C; his-Vim precipitated on Ni-NTA beads; in-gel Rhodamine fluorescence and vimentin blot; both purified.

Protein sequences, listed by entry. Tags and fused reporters are not part of them. Lines headed by an entry give the natural chain unless they say otherwise; changes in a name come on top. Chains listed by the source or under a name are the forms on record and can include a tag or linker.
UniProt Q9BY78: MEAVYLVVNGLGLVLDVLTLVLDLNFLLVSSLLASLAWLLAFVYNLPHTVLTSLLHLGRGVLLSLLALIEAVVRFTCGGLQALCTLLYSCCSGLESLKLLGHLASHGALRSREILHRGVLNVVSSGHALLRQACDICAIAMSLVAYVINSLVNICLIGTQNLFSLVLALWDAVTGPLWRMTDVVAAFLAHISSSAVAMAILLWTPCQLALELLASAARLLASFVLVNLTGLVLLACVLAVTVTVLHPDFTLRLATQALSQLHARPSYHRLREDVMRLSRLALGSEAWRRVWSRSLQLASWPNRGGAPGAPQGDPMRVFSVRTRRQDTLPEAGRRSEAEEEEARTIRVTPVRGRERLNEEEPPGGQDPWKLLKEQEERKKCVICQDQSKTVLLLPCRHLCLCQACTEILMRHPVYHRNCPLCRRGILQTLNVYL
Rhodamine-RING-I382R (304–433) (Q9BY78, form named): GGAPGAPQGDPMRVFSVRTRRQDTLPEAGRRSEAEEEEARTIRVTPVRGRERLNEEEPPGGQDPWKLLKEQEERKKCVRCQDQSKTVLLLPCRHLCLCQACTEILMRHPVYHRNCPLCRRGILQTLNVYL
UniProt P08670: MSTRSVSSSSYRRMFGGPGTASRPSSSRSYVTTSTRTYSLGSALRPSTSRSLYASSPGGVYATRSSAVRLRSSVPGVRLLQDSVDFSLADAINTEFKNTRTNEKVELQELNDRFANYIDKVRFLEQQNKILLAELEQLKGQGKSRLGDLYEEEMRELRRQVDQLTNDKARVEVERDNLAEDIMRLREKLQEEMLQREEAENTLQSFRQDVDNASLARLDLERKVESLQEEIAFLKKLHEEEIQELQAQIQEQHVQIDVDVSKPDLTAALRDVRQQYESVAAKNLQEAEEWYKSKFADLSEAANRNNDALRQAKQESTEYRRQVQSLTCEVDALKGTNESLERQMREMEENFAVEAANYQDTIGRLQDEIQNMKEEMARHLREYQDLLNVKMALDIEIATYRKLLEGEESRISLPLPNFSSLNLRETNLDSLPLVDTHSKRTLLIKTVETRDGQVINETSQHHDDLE
UniProt Q86TM6: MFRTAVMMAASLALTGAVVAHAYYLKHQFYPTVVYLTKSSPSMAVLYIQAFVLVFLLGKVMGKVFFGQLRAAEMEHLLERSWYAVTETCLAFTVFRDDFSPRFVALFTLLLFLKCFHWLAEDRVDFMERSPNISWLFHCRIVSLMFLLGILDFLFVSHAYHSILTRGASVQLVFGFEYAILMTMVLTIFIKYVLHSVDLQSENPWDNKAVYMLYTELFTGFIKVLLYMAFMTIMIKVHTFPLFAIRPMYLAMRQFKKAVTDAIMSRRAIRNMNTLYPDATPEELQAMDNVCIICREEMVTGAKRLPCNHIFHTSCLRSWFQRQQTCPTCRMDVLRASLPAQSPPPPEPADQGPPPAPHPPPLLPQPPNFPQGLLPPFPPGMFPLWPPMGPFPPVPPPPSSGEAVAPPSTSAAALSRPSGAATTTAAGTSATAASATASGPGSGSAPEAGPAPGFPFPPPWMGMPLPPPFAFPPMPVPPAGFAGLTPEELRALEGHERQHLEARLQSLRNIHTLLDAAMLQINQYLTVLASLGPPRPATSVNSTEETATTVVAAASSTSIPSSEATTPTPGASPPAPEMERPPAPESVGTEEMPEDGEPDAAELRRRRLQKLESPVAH

These results are taken from PMC10505911.

No constants are given. Whether binding was seen depends on the method and setting. For part of these data: Binding seen in cells or lysates may run through a third protein. Some entries that bind do so weakly or less than the wild type. For part of these data: Sequences can lack the tags named with a protein.

Regarding HA-HRD1 (from UniProt Q86TM6 1-617), the binding entry with RFP-RNF26 I382R and with RFP-RNF26 WT was “binds” each time.

In the case of “Rhodamine-RING-I382R (304–433) (from UniProt Q9BY78 304-433) (domain or fragment)”, the binding entry in test [1] and in test [2] was “binds” throughout.

B1: HA-HERP1 (protein, UniProt Q15011 1-391)
chain: MESETEPEPVTLLVKSPNQRHRDLELSGDRGWSVGHLKAHLSRVYPERPRPEDQRLIYSGKLLLDHQCLRDLLPKQEKRHVLHLVCNVKSPSKMPEINAKVAESTEEPAGSNRGQYPEDSSSDGLRQREVLRNLSSPGWENISRPEAAQQAFQGLGPGFSGYTPYGWLQLSWFQQIYARQYYMQYLAATAASGAFVPPPSAQEIPVVSAPAPAPIHNQFPAENQPANQNAAPQVVVNPGANQNLRMNAQGGPIVEEDDEINRDWLDWTYSAATFSVFLSILYFYSSLSRFLMVMGATVVMYLHHVGWFPFRPRPVQNFPNDGPPPDVVNQDPNNNLQEGTDPETEDPNHLPPDRDVLDGEQTSPSFMSTAWLVFKTFFASLLPEGPPAIAN
Regarding B1, the binding entry in the test with RFP-RNF26 I382R and with RFP-RNF26 WT was “binds” each time.
